Source: paper PMC9665402

Experiments:
[1] = target: T1, CheA, bacterial two-hybrid fusion (C. jejuni 81-176) (UniProt Q0PBM2); assay: two-hybrid; bacterial two-hybrid (BTH): T25 and T18 fusions co-transformed into E. coli BTH101; spotted on LB plates with X-Gal and IPTG, 30°C, 24-48 hours; blue colonies show an interaction
T1 sequence: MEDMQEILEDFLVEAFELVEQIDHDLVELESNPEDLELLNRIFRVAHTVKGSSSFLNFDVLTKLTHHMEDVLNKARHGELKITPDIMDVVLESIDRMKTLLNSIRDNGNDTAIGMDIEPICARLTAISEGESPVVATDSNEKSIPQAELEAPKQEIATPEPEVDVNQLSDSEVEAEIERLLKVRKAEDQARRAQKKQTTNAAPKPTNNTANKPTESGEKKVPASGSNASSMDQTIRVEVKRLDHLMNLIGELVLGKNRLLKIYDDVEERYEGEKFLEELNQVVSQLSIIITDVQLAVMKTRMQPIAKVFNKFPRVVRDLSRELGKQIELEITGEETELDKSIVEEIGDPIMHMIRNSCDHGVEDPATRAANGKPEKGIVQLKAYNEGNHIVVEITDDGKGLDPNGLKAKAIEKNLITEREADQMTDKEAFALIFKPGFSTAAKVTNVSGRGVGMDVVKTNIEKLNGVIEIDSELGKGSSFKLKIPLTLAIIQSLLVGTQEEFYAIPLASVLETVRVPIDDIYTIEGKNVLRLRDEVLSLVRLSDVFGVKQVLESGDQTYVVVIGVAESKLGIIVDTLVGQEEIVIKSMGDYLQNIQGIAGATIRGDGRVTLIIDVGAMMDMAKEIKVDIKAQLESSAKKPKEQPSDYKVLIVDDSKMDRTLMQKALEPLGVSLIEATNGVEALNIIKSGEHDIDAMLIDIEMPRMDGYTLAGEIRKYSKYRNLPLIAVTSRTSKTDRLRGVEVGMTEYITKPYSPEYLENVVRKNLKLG

[2] = target: T2, FliM, bacterial two-hybrid fusion (C. jejuni 81-176) (UniProt Q0PC73); assay: as above
T2 sequence: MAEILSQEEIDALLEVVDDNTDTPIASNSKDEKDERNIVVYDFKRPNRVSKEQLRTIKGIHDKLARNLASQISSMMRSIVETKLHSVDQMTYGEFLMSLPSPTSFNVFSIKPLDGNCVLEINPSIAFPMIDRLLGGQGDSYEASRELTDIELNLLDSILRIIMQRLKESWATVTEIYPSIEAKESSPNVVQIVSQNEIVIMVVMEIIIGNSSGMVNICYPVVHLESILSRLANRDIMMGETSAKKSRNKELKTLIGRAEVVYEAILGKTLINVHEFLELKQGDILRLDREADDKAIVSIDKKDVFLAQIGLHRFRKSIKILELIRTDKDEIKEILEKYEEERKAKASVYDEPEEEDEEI

[3] = target: T3, FliY, bacterial two-hybrid fusion (C. jejuni 81-176) (UniProt Q0PC74); assay: as above
T3 sequence: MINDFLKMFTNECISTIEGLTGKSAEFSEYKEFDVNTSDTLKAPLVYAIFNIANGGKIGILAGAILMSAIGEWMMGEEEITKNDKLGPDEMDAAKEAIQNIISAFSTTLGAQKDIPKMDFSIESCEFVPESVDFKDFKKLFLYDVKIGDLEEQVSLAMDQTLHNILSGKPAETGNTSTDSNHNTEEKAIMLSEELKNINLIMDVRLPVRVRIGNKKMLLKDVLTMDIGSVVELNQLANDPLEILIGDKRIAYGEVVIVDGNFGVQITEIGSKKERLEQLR

[4] = target: T4, CheA fused with V5-tag (C. jejuni 81-176) (UniProt Q0PBM2); assay: co-IP; called pull-down and co-IP: 3XFLAG-CheO and V5-tagged candidates from pG0407 in E. coli BL21; soluble lysate (50 mM Tris, 150 mM NaCl, 0.5% Triton X-100, pH 7.5) incubated overnight at 4°C with anti-V5 magnetic beads or ANTI-FLAG M2 gel, washed with TBS; western blot for FLAG and V5
T4 sequence: T1 sequence

[5] = target: T5, CheY fused with V5-tag (C. jejuni 81-176) (UniProt A1W0A5); assay: as above
T5 sequence: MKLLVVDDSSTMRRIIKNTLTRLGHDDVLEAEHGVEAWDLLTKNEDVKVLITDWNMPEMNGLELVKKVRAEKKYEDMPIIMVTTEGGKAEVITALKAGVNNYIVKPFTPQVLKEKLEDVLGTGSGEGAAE

[6] = target: T6, FliM fused with V5-tag (C. jejuni 81-176) (UniProt Q0PC73); assay: as above
T6 sequence: T2 sequence

[7] = target: T7, FliY fused with V5-tag (C. jejuni 81-176) (UniProt Q0PC74); assay: as above
T7 sequence: T3 sequence

| Substance | binding [1] | binding [2] | binding [3] | binding [4] | binding [5] | binding [6] | binding [7] |
| --- | --- | --- | --- | --- | --- | --- | --- |
| CheO (CJJ81176_1265), bacterial two-hybrid fusion (C. jejuni 81-176) | binds | binds | binds | – | – | – | – |
| CheO fused with 3X FLAG-tag (C. jejuni 81-176) | – | – | – | binds | no binding | binds | binds |

These are yes or no findings as the source states them, for the method shown. For some of these results: Binding can be weak; no strength is given. Where a sequence is shown, tags or fusion partners need not be part of it. For some of these results: In cells and extracts the contact can be indirect.
